From US20040092571A1, “Pharmaceutical composition” (SANKYO COMPANY, LIMITED, priority 2000, published 2004)
For at least one compound, name, drawing or mass did not settle the structure.

System: F1b hamsters
Assay: Lipid lowering action in cholesterol/coconut oil-fed F1b hamsters (serum lipids by an enzyme method)
Type: in vivo, hamster
Conditions: summary of Table 1
Description: Eleven-week-old male F1b hamsters were used in the experiment. The animals were fed in metal cages and allowed free access to food, which contained 0.05% cholesterol and 10% coconut oil, and water. The active agents were administered orally in the form of a suspension in 5% gum arabic solution once a day for 7 days. The animals were fasted for 17 hours after the final administration of active agents at which time blood samples were collected under anesthesia. Serum lipids were measured by an enzyme method. In the table, TC indicates total cholesterol, VLDL indicates very low density lipoprotein, LDL indicates low density lipoprotein, HDL indicates high density lipoprotein and compound A indicates N-(1-octyl-5-carboxymethyl-4,6-dimethylindolin-7-yl)-2,2-dimethylpropanamide sulfate.

For `CC[C@H](C)C(=O)O[C@H]1C[C@H](O)C=C2C=C[C@H](C)[C@H](CC[C@@H](O)C[C@@H](O)CC(=O)O)[C@H]21` [Pravastatin, (+)-(3R,5R)-3,5-dihydroxy-7-[(1S,2S,6S,8S,8aR)-6-hydroxy-2-methyl-8-[(S)-2-methylbutyryloxy]-1,2,6,7,8,8a-hexahydro-1-napthyl]heptanoic acid], the “Effect on atherogenic index (in words)” value was “lowered”, the “Effect on serum VLDL+LDL cholesterol level (in words)” value was “decreased” and the “Effect on total serum cholesterol level (in words)” value was “decreased”.
